# Values from PubChem BioAssay AID1259254 (NCATS, 2017).
# Purpose: 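Genome-wide screen for genes that prevent DNA re-replication in cancer cells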 (primary screen)
# Cells: human HCT116 colorectal cancer cells
# Knock-down reagent: single siRNA against human genes
# Time to read-out: 3 days
# Measured: 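Nuclei stained with Hoechst and imaged; cell-cycle phase assigned by DNA content; G2 share scaled per plate, non-targeting siRNA 0%, GMNN siRNA 100%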
# Direction: G2 robust z-score and G2 cells, % of GMNN control: higher = more G2 cells, more excess DNA replication; raw share of cells in G2: higher = larger share of cells with G2 DNA content
# Call rule: 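Active siRNAs have a G2 robust z of 5 or more median absolute deviations over the median, which in these data means about 38% or higher of GMNN control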
# Shown is an unselected part of about 59,000 reagents. About 1,550 of them (2.6%) were called active. 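G2 share is only a proxy for re-replication; each gene was hit by three separate siRNAs, and active genes were retested.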 Raw values are not corrected between plates. Reagents against one gene are numbered here. Not given: the amount of reagent.
The opening 4 entries, to show the layout:
gene knocked down,reagent no.,G2 robust z-score,"G2 cells, % of GMNN control",raw share of cells in G2 (%),activity call
NOP10,1,-0.428,-0.0466,4.51,inactive
NOP10,2,0.664,7.64,7.3,inactive
NOP10,3,0.127,3.86,4.37,inactive
CPNE5,1,-0.398,0.167,4.41,inactive

The listing, from the first entry:
gene knocked down,reagent no.,G2 robust z-score,"G2 cells, % of GMNN control",raw share of cells in G2 (%),activity call
NOP10,1,-0.428,-0.0466,4.51,inactive
NOP10,2,0.664,7.64,7.3,inactive
NOP10,3,0.127,3.86,4.37,inactive
CPNE5,1,-0.398,0.167,4.41,inactive
CPNE5,2,-0.677,-1.79,3.6,inactive
CPNE5,3,-0.43,-0.0573,3.01,inactive
HEXB,1,-0.022,2.81,6.75,inactive
HEXB,2,-0.364,0.403,4.35,inactive
HEXB,3,0.884,9.19,8.38,inactive
PRKAG2,1,-0.506,-0.596,4.02,inactive
PRKAG2,2,1.38,12.7,11.7,inactive
PRKAG2,3,0.868,9.08,7.28,inactive
SNCA,1,-0.724,-2.13,2.62,inactive
SNCA,2,0.539,6.76,5.56,inactive
SNCA,3,0.408,5.84,7.58,inactive
CAND2,1,-1.08,-4.63,1.99,inactive
CAND2,2,-0.939,-3.64,4.37,inactive
CAND2,3,-0.0177,2.84,4.53,inactive
WIPI2,1,1.3,12.1,8.96,inactive
WIPI2,2,1.42,13,9.57,inactive
WIPI2,3,-0.173,1.75,3.91,inactive
UROC1,1,-0.263,1.12,4.6,inactive
UROC1,2,0.0715,3.47,4.2,inactive
UROC1,3,-0.441,-0.133,2.53,inactive
UGT1A10,1,-0.56,-0.973,3.43,inactive
UGT1A10,2,0.47,6.27,8.8,inactive
UGT1A10,3,1.36,12.5,8.87,inactive
SLC35D2,1,-1.65,-8.66,2.89,inactive
SLC35D2,2,4.54,34.9,15.8,inactive
SLC35D2,3,-0.32,0.718,4.4,inactive
TLCD5,1,-0.694,-1.91,2.88,inactive
TLCD5,2,0.779,8.45,6.02,inactive
TLCD5,3,1.95,16.7,8.51,inactive
CETP,1,0.26,4.79,6.67,inactive
CETP,2,0.0198,3.11,6.13,inactive
CETP,3,0.0873,3.58,5.33,inactive
ZNF37BP,1,-0.596,-1.22,2.71,inactive
ZNF37BP,2,-0.649,-1.6,2.68,inactive
ZNF37BP,3,0.775,8.42,6.63,inactive
PNP,1,0.0999,3.67,6.93,inactive
PNP,2,0.107,3.72,4.42,inactive
PNP,3,-0.0822,2.39,6.28,inactive
CT47C1,1,-0.0462,2.64,3.8,inactive
CT47C1,2,-0.736,-2.21,2.76,inactive
CT47C1,3,5.74,43.4,20,active
DET1,1,1.36,12.6,9.35,inactive
DET1,2,0.0413,3.26,5.49,inactive
DET1,3,-0.675,-1.78,2.57,inactive
